PubChem BioAssay AID686943 | Drosophila RNAi Screening Center | 2013

Assay: 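Fly genes whose loss alters ERK activation after insulin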 (primary screen)
Cell system: Drosophila S2R+ haemocyte-like cells expressing YFP-tagged ERK (Rolled)
Reagents: long dsRNA against Drosophila genes
Conditions: insulin stimulation versus unstimulated cells; dose and duration not given
Detection: 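Per-plate z-scores of phospho-ERK immunostaining normalised to YFP-tagged ERK, measured with and without insulin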
Reading the numbers: replicate 1, z-score of dpERK with insulin and replicate 2, z-score of dpERK with insulin: higher = more active ERK per ERK-YFP after insulin
The screen tested about 23,000 reagents; this is a random part of those that have a named target and a result. 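Extra replicates exist only for a retested subset of genes; insulin dose and duration not given; both raised and lowered dpERK matter.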 The numbers tell different reagents against one gene apart. A plus sign joins genes that one reagent is predicted to hit. Further read-outs or replicates are left out here. Not given: the amount of reagent, the time to read-out.

Silencing of CG43293 gave: replicate 1, z-score of dpERK with insulin 0.39; replicate 2, z-score of dpERK with insulin 0.06.
After knock-down of Prp40 (pre-mRNA processing factor 40) the results were replicate 1, z-score of dpERK with insulin 0.04; replicate 2, z-score of dpERK with insulin -1.36.
Against snsl (snustorr snarlik) the deposit lists replicate 1, z-score of dpERK with insulin 0.4; replicate 2, z-score of dpERK with insulin 0.4.
Depletion of CG13891 came out at: replicate 1, z-score of dpERK with insulin 0.3; replicate 2, z-score of dpERK with insulin 1.18.
Knock-down of Idgf1 (Imaginal disc growth factor 1) came out at: replicate 1, z-score of dpERK with insulin 0.38; replicate 2, z-score of dpERK with insulin -0.15.
lbe (ladybird early) scored replicate 1, z-score of dpERK with insulin 0.29; replicate 2, z-score of dpERK with insulin -0.07.
Silencing of His-Psi:CR31616 + His-Psi:CR31615 resulted in: replicate 1, z-score of dpERK with insulin -7.77; replicate 2, z-score of dpERK with insulin -5.87.
For clos (closca) #1 the deposit lists replicate 1, z-score of dpERK with insulin 0.86; replicate 2, z-score of dpERK with insulin 0.04.
clos (closca) #2 gave replicate 1, z-score of dpERK with insulin 1.45; replicate 2, z-score of dpERK with insulin 0.14.
clos (closca) #3 gave replicate 1, z-score of dpERK with insulin 0.31; replicate 2, z-score of dpERK with insulin -0.38.
For clos (closca) #4 the deposit lists replicate 1, z-score of dpERK with insulin 0.59; replicate 2, z-score of dpERK with insulin 1.4.
Against clos (closca) #5 the deposit lists replicate 1, z-score of dpERK with insulin 0.24; replicate 2, z-score of dpERK with insulin 0.3.

Part of the list above, reduced to “replicate 1, z-score of dpERK with insulin”:
Prp40 (pre-mRNA processing factor 40)	0.04
snsl (snustorr snarlik)	0.4
CG13891	0.3
Idgf1 (Imaginal disc growth factor 1)	0.38

Further entries follow.
CG31823 showed replicate 1, z-score of dpERK with insulin 0.51; replicate 2, z-score of dpERK with insulin -0.07.
With knock-down of CG34357 #1 the results were replicate 1, z-score of dpERK with insulin -0.24; replicate 2, z-score of dpERK with insulin 0.03.
For CG34357 #2 the deposit lists replicate 1, z-score of dpERK with insulin -0.99; replicate 2, z-score of dpERK with insulin 0.38.
Silencing of CG34357 #3 resulted in: replicate 1, z-score of dpERK with insulin 0.58; replicate 2, z-score of dpERK with insulin 0.11.
CG34249 (retired record) showed replicate 1, z-score of dpERK with insulin 0.05; replicate 2, z-score of dpERK with insulin 0.51.
For Polr3F (RNA polymerase III subunit F) the deposit lists replicate 1, z-score of dpERK with insulin -0.03; replicate 2, z-score of dpERK with insulin -0.26.
Silencing of AIF (Apoptosis inducing factor) came out at: replicate 1, z-score of dpERK with insulin -0.91; replicate 2, z-score of dpERK with insulin -0.19.
Knock-down of Rab1 resulted in: replicate 1, z-score of dpERK with insulin 1.4; replicate 2, z-score of dpERK with insulin -0.34.
For CG31007 the deposit lists replicate 1, z-score of dpERK with insulin -0.29; replicate 2, z-score of dpERK with insulin -0.17.
Against CG10324, the values are replicate 1, z-score of dpERK with insulin 0.6; replicate 2, z-score of dpERK with insulin -1.48.
After knock-down of ClpP (Caseinolytic protease proteolytic subunit), the screen gave replicate 1, z-score of dpERK with insulin -0.49; replicate 2, z-score of dpERK with insulin -0.29.
For RSG7 (Regulator of G-protein signaling 7) #1 the deposit lists replicate 1, z-score of dpERK with insulin 1.69; replicate 2, z-score of dpERK with insulin 0.69.
Against RSG7 (Regulator of G-protein signaling 7) #2 the deposit lists replicate 1, z-score of dpERK with insulin 0.54; replicate 2, z-score of dpERK with insulin 0.42.
After knock-down of GABA-B-R1 (metabotropic GABA-B receptor subtype 1), the record shows replicate 1, z-score of dpERK with insulin -0.19; replicate 2, z-score of dpERK with insulin 0.33.
Against Oatp26F (Organic anion transporting polypeptide 26F) #1 the deposit lists replicate 1, z-score of dpERK with insulin 0.46; replicate 2, z-score of dpERK with insulin 0.27.
For Oatp26F (Organic anion transporting polypeptide 26F) #2 the deposit lists replicate 1, z-score of dpERK with insulin 0.05; replicate 2, z-score of dpERK with insulin -0.36.
Silencing of Oatp26F (Organic anion transporting polypeptide 26F) #3 came out at: replicate 1, z-score of dpERK with insulin 0.42; replicate 2, z-score of dpERK with insulin 0.49.
For CG16956, the values are replicate 1, z-score of dpERK with insulin 0.23; replicate 2, z-score of dpERK with insulin 0.02.
PEK (pancreatic eIF-2alpha kinase) gave replicate 1, z-score of dpERK with insulin 0.31; replicate 2, z-score of dpERK with insulin 0.37.
